This is one part of the list. Further columns of the screen follow, without active or inactive calls. Compounds called inactive in the main read-out are mostly missing here.
Experiment: inhibitors of insulin promoter-driven GFP, primary screen, imaging, TRM-6 cells (human fetal islet line), eGFP reporter, cell count (AID 1273;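 further: cells exposed to compound for 48 h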)
Details: measured here: cell count, toxicity, at 2 µM, reporter expression induced with tamoxifen

Compound | normalized cell count [%]
Nc1c(C(=O)Nc2ccccc2)sc2nc(-c3ccco3)ccc12 | 52
CC(C)CC(=O)NCCCN1CCN(CCCNC(=O)CC(C)C)CC1 | 114
COc1ccc(C)cc1NC(=O)CSc1nnc(CC(=O)Nc2ccccc2C)n1C | 50.6
COc1cc(/C=N/NC(=O)c2ccc(-n3cccc3)cc2)ccc1O | 79.4
Cc1cnc(C(=O)OCC(=O)NCCCc2ccccc2)cn1 | 75.3
N=c1sccn1CC(=O)NC(=O)NC1CCCC1 | 92.7
COC(=O)C1=C(C)NC(=S)N(C(C)=O)C1c1ccccc1 (configuration not stated) | 29.3
COc1ccc(C(=O)NC(Nc2ccccc2)C(Cl)(Cl)Cl)cc1 (configuration not stated) | 84
CC(C)(C)NC(=O)/C=C/c1cccc(C(F)(F)F)c1 | 149
Cc1onc(-c2ccccc2Cl)c1C(=O)Nc1cccc(-c2nc3ncccn3c2C)c1 | 118
COc1ccc(Oc2nnnn2-c2ccccc2)cc1 | 116
Cc1cccc2sc(NNC(=O)c3ccc(S(=O)(=O)N4CCc5ccccc5C4)cc3)nc12 | 103
Clc1cccc(Cl)c1/C=C/c1nc2ccccc2[nH]1 | 104
Cn1c(N)c(C(=O)COC(=O)C2CCCN2C(=O)c2cccs2)c(=O)n(C)c1=O (configuration not stated) | 116
COc1ccc(Cl)cc1NC(=O)c1cnc2sccn2c1=O | 53.7
CC(=O)NC1C(=O)SC1(C)C (configuration not stated) | 154
C=CC[N+](C)(C)C/C(Cl)=C(\Cl)c1ccccc1 | 15.8
CNC(=O)CSCc1c(F)cccc1Cl | 84.2
Cc1cccc(CSCCNC(=O)c2ccc(CN3CCOCC3)cc2)c1 | 84.8
Cc1c(C(=O)Nc2ccc(F)cc2)oc2ccc(S(=O)(=O)N3CC(C)CC(C)C3)cc12 (configuration not stated) | 39.7
CC(=O)c1ccc(Nc2nc(=O)c3cccnc3s2)cc1 | 111
O=C(COC(=O)c1ccc(NS(=O)(=O)c2ccc3c(c2)OCCO3)cc1)NC1CC1 | 91.1
CC[C@@H](C)[C@H](NC(=O)OC(C)(C)C)c1nnc(S(=O)(=O)Cc2cc(C)ccc2C)o1 | 56
Cc1ccc(S(=O)(=O)CC(=O)Nc2ccc(Cl)cn2)cc1 | 121

Compound | normalized cell count [%]
COC(=O)CC(NS(=O)(=O)c1cccs1)c1ccccc1Cl (configuration not stated) | 155
CCCc1nc2ccccc2[nH]1 | 109
O=C(Nc1ccc2c(c1)OCCO2)N1CCOCC1 | 98.7
CSc1ccc(OC2CCCCC2NS(=O)(=O)c2ccc(Cl)cc2)cc1 (configuration not stated) | 0
CC1=C(C(=O)Nc2ccc(Br)cc2)C(c2ccco2)NC(=O)N1 (configuration not stated) | 44
Cc1nn(CCC(=O)NNC(=S)Nc2ccc([N+](=O)[O-])cc2)c(C)c1[N+](=O)[O-] | 120
CCCCC1NC(C(=O)O)CS1 (configuration not stated) | 117
CCCNC(=O)CN1C(=O)NC(CCc2ccccc2)C1=O (configuration not stated) | 81.1
COc1ccc(N2CCN(C(=O)CSc3ncnc4c3cnn4-c3ccccc3C)CC2)cc1 | 118
Cc1ccc2cc3c(NC(=O)c4ccco4)nn(C)c3nc2c1 | 155
N#Cc1c(-n2cccc2/C=N/O)sc2c1CCCC2 | 127
COc1cc(C(=O)N(Cc2ccc(N(C)C)cc2)C2CCS(=O)(=O)C2)cc(OC)c1OC (configuration not stated) | 128
CCc1nc(NCCN2CCOCC2)c2oc3ccccc3c2n1 | 106
O=C(OCC(=O)N1CCCc2ccccc21)c1ccc(Cl)nc1 | 51.5
Cc1c(C#N)c(O)n(C)c(=O)c1N=Nc1ccc(S(N)(=O)=O)cc1 | 129
COC(=O)c1cscc1NC(C)=O | 85.8
CC1OC23CCCCC2C(C#N)(C(=N)O3)C1(C#N)C#N (configuration not stated) | 91.8
CCCNC(=O)Cn1nc(C(F)(F)F)c2c1CCC2 | 125
Cc1nc2cc(NC(=O)N(C)c3ccc4ccccc4c3)ccc2o1 | 30.2
Cc1cccc(OCc2n[nH]c(=S)n2C2CCCCC2)c1 | 109
O=C(CSC1=Nc2ccccc2C2CC=NN12)Nc1ccc2c(c1)OCO2 (configuration not stated) | 67.4
O=C(NCc1ccc2c(c1)OCO2)c1ccc(CN2CCOCC2)cc1 | 40.7
CCOC(=O)N1CCC(N2CCN(S(=O)(=O)c3ccc(C)cc3)CC2)CC1 | 62
COC(=O)c1ccc(-c2cc(C(=O)O)c3cc4c(cc3n2)OCCO4)cc1 | 126

Compound | normalized cell count [%]
CC(C)C(=O)c1cc2c(cc1NC(=O)c1ccccc1)OCCO2 | 125
O=C(CSc1nc2c(sc3ccccc32)c(=O)n1-c1ccccc1)NCc1ccco1 | 81.9
O=C(NC(=S)Nc1ccc(S(=O)(=O)Nc2nccs2)cc1)c1cccc(F)c1 | 94.1
O=C(O)C1CC=CCC1C(=O)c1ccccc1 (configuration not stated) | 111
Cc1ccc(/C(=N\O)c2oc3c(C)c4oc(=O)cc(C)c4cc3c2C)cc1 | 121
Nc1cc(C(=O)O)c(Oc2ccc(Cl)cc2Cl)cc1C(=O)O | 138
Cc1ccc(C(c2nnnn2CS(=O)(=O)c2ccc(C)cc2)N2CCN(c3ncccn3)CC2)cc1 (configuration not stated) | 94.2
COc1cc(/C=N/NC(=O)c2ccncc2)ccc1OC(=O)c1ccc([N+](=O)[O-])cc1 | 0.79
Cc1nc(-c2ccc(NS(C)(=O)=O)cc2)cs1 | 46
O=C(O)CCC(=O)Nc1sc2c(c1C(=O)Nc1cccc3ccccc13)CCCCC2 | 88.6
CCCCN(C)C1=Nc2cccc3cccc1c23 | 126
O=C(Nc1ccc(C(=O)O)cc1)/C(=C\c1ccc2c(c1)OCO2)NC(=O)c1ccccc1 | 93.1
Cc1noc(C)c1CSc1nnc(C)c(=O)[nH]1 | 32.9
Cc1nn(C)c(C)c1CNC(=O)/C=C/c1ccccc1F | 110
Cc1nnc(SCC(=O)c2ccc(Cl)cc2)s1 | 122
COc1ccc(/C=N/OCC(=O)N=Nc2c(O)[nH]c3ccc(Br)cc23)cc1 | 109
On1c(-c2ccc(Cl)cc2)nc2ccccc21 | 172
COC(=O)c1cc(NC(=O)c2ccc(Cn3cc(Cl)cn3)o2)cc(C(=O)OC)c1 | 51.6
O=C(Nc1ccc([N+](=O)[O-])cn1)C1CC2CCC1C2 (configuration not stated) | 120
O=C(NCc1ccco1)c1cc2ccc(O)cc2oc1=O | 52.5
COc1ccc2ccccc2c1CN1CCN(Cc2ccccc2)CC1 | 52.1
C=CCn1c(SCC(=O)N2CCN(c3ccccc3)CC2)nnc1-c1ccco1 | 77.4
Cc1ccc(CN2CCN(/N=C/C=C/c3ccccc3[N+](=O)[O-])CC2)cc1 | 94.2
CC(C)=C1SC(N2CCN(c3ccc(Cl)cc3)CC2)=NC1=O | 108

In another format: 18 of the compounds above.
Compound,normalized cell count [%]
O=C(CSc1nc2c(sc3ccccc32)c(=O)n1-c1ccccc1)NCc1ccco1,81.9
O=C(NC(=S)Nc1ccc(S(=O)(=O)Nc2nccs2)cc1)c1cccc(F)c1,94.1
O=C(O)C1CC=CCC1C(=O)c1ccccc1 (configuration not stated),111
Cc1ccc(/C(=N\O)c2oc3c(C)c4oc(=O)cc(C)c4cc3c2C)cc1,121
Nc1cc(C(=O)O)c(Oc2ccc(Cl)cc2Cl)cc1C(=O)O,138
Cc1ccc(C(c2nnnn2CS(=O)(=O)c2ccc(C)cc2)N2CCN(c3ncccn3)CC2)cc1 (configuration not stated),94.2
COc1cc(/C=N/NC(=O)c2ccncc2)ccc1OC(=O)c1ccc([N+](=O)[O-])cc1,0.79
Cc1nc(-c2ccc(NS(C)(=O)=O)cc2)cs1,46
O=C(O)CCC(=O)Nc1sc2c(c1C(=O)Nc1cccc3ccccc13)CCCCC2,88.6
CCCCN(C)C1=Nc2cccc3cccc1c23,126
O=C(Nc1ccc(C(=O)O)cc1)/C(=C\c1ccc2c(c1)OCO2)NC(=O)c1ccccc1,93.1
Cc1noc(C)c1CSc1nnc(C)c(=O)[nH]1,32.9
Cc1nn(C)c(C)c1CNC(=O)/C=C/c1ccccc1F,110
Cc1nnc(SCC(=O)c2ccc(Cl)cc2)s1,122
COc1ccc(/C=N/OCC(=O)N=Nc2c(O)[nH]c3ccc(Br)cc23)cc1,109
On1c(-c2ccc(Cl)cc2)nc2ccccc21,172
COC(=O)c1cc(NC(=O)c2ccc(Cn3cc(Cl)cn3)o2)cc(C(=O)OC)c1,51.6
O=C(Nc1ccc([N+](=O)[O-])cn1)C1CC2CCC1C2 (configuration not stated),120
